Reference: PubChem BioAssay AID232 (DTP/NCI, 2004)
The list is a part of this screen's results and no random one: it gathers tests that were run many times, whatever their T/C, doses with no T/C, and many T/C values between a quarter and a half above the control. Other doses and runs of a compound stand elsewhere. T/C gives the treated animals as a percentage of the vehicle group. Some doses have a count of surviving animals in place of a T/C: the source holds a T/C of zero for them, seemingly a mark for toxic or unscored doses. Some doses without a T/C left all or most animals alive at the check, yet need not have been tolerated: the source hardly ever lists a survival T/C far under the control, and the zero likely stands for such cases as well. Counts of survivors are from the toxicity check (mostly the fifth day) where no day follows; animals may have died later. Schedules are NCI's codes, read here as Q, the interval in days (D) or hours (H), X, the number of doses. Some doses were run more than once; their values stand side by side, smallest first. Some structures stand for samples that the source files as different forms (salt, stereo form or complex); doses refer to the form tested. Where survival is the endpoint, this PubChem deposit counts one and a half times the control or more as active, and values a quarter to a half above the control carry no call in these data; other NCI protocols may use other cut-offs. Marks such as (2×) count equal records among those shown. Numbered stars: 1 amine (or outer) side, 2 acyl side, 3 side chain; on linkers, the order of the positions; unused ones are H or OH. Bridge positions count the residues as written; N and C are the ends. Square brackets hold non-standard residues; d marks the D form. Peptide text beside a SMILES is read from it. I, II: the chains in the order shown. Actinocin(9to1) = Cc1c2oc3c(C)ccc(C(=O)[*:1])c3nc-2c(C(=O)[*:2])c(N)c1=O; aThr = C[C@H](O)[C@H](N)C(=O)O; NMeV = CN[C@H](C(=O)O)C(C)C; Sar = CNCC(=O)O

Tested on: Gardner 6C3HED lymphosarcoma ip, C3AKF1 mice, survival T/C
Experiment: NCI In Vivo Anticancer Drug Screen. Data for tumor model Lymphosarcoma Gardner 6C3HED (intraperitoneal) in C3AKF1 (CHKRF1) mice
Settings: T/C endpoint: survival time, mean or median, schedule: Q01DX010 (ip), higher T/C = longer survival
Experimental: The antitumor activity of compounds was measured in mice bearing transplantable tumors. Survival or tumor size were measured and the results are expressed as the measurement made in the treated group (T) divided by the measurement made in the vehicle treated control group (C). The tumor model used in this assay is Lymphosarcoma Gardner 6C3HED (intraperitoneal) in C3AKF1 (CHKRF1) mice

[1] = dose: 0.25 mg/kg/injection, vehicle: saline
[2] = dose: 0.5 mg/kg/injection, vehicle: saline
[3] = dose: 5.0 mg/kg/injection, vehicle: saline
[4] = dose: 8.0 mg/kg/injection, vehicle: saline
[5] = dose: 6.25 mg/kg/injection, vehicle: saline
[6] = dose: 12.5 mg/kg/injection, vehicle: saline
[7] = dose: 90.0 mg/kg/injection, vehicle: saline
[8] = dose: 62.5 mg/kg/injection, vehicle: saline
[9] = dose: 16.0 mg/kg/injection, vehicle: saline
[10] = dose: 3.0 mg/kg/injection, vehicle: other
[11] = dose: 100.0 mg/kg/injection, vehicle: alkali diluted with saline

CC[C@]1(O)C[C@H]2CN(CCc3c([nH]c4ccccc34)[C@@](C(=O)OC)(c3cc4c(cc3OC)N(C=O)[C@H]3[C@@](O)(C(=O)OC)[C@H](OC(C)=O)[C@]5(CC)C=CCN6CC[C@]43[C@@H]65)C2)C1 was tested, and the T/C (dose: 0.03 mg/kg/injection, vehicle: saline) was 133, 183, 225, 245 % of control, the T/C (dose: 0.06 mg/kg/injection, vehicle: saline) was 183, 200, 285, 300 % of control and the T/C [1] was 250 and 300 % of control (2×). The survivor count [1] was 6 of 6, the T/C [2] was 120 % of control and the survivor count [2] was 6 of 6.
NC(Cc1ccc(N(CCCl)CCCl)cc1)C(=O)O (stereo not given) was tested, and the T/C (dose: 2.5 mg/kg/injection, vehicle: saline) was 129 % of control, the T/C (dose: 4.0 mg/kg/injection, vehicle: saline) was 130 and 140 % of control and the T/C [3] was 137 % of control. For the same molecule, the T/C [4] was 140 % of control and the survivor count (dose: 20.0 mg/kg/injection, vehicle: saline) was 6 of 6.
In the case of CS(=O)(=O)OCCCCOS(C)(=O)=O, the T/C [5] is reported as 95 and 100 % of control, the survivor count [5] is reported as 6 of 6 and the T/C [6] is reported as 86 and 91 % of control. For the same molecule, the survivor count [6] was 5 of 6 and 6 of 6, the survivor count (dose: 25.0 mg/kg/injection, vehicle: saline) was 5 of 6 and 6 of 6 and the survivor count (dose: 50.0 mg/kg/injection, vehicle: saline) was 6 of 6.
With O=C(Nc1ccc(C2=NCCCN2)cc1)c1ccc(NC(=O)c2ccc(C3=NCCCN3)cc2)cc1 the T/C (dose: 1.0 mg/kg/injection, vehicle: other) was 133 and 145 % of control and the survivor count (dose: 16.0 mg/kg/injection, vehicle: other) was 4 of 6 and 5 of 6.
With Cc1c2oc3c(C)ccc(C(=O)N[C@@H]4C(=O)N[C@H](C(C)C)C(=O)N5CCC[C@H]5C(=O)N(C)CC(=O)N(C)[C@@H](C(C)C)C(=O)O[C@H]4C)c3nc-2c(C(=O)N[C@@H]2C(=O)N[C@H](C(C)C)C(=O)N3CCC[C@H]3C(=O)N(C)CC(=O)N(C)[C@@H](C(C)C)C(=O)O[C@H]2C)c(N)c1=O (I: [aThr][dV]P[Sar][NMeV] / II: [aThr][dV]P[Sar][NMeV]; ester I:1-I:C, II:1-II:C; linker I:N-II:N via Actinocin(9to1)) the T/C (dose: 0.03 mg/kg/injection, vehicle: acid diluted with saline) was 145 % of control.
O=P1(N(CCCl)CCCl)NCCCO1 (stereo not given) was tested, and the T/C (dose: 11.3 mg/kg/injection, vehicle: saline) was 137, 166, 175, 200 % of control, the T/C (dose: 22.5 mg/kg/injection, vehicle: saline) was 170, 187, 195, 270 % of control and the T/C (dose: 45.0 mg/kg/injection, vehicle: saline) was 125, 129, 250, 300 % of control. The T/C [7] was 100, 105, 108, 154 % of control and the survivor count (dose: 180.0 mg/kg/injection, vehicle: saline) was 5 of 6 and 6 of 6.
CCn1cnc2c(=S)nc[nH]c21 was tested, and the survivor count (dose: 15.6 mg/kg/injection, vehicle: saline) was 6 of 6, the survivor count [8] was 6 of 6 and the survivor count (dose: 125.0 mg/kg/injection, vehicle: saline) was 6 of 6.
With O=c1[nH]cc(F)c(=O)[nH]1 the T/C [3] was 141 % of control.
With Nc1nc(SCc2ccccc2)c2[nH]cnc2n1 the survivor count [4] was 6 of 6 and the survivor count [9] was 6 of 6.
With N#[N+]c1cnc([O-])[nH]c1=O the T/C (dose: 1.25 mg/kg/injection, vehicle: saline) was 125 % of control.
With CN(N=O)C(=O)NC(C=O)C(O)C(O)C(O)CO (stereo not given) the T/C [7] was 127 and 131 % of control.
CN(Cc1cnc2nc(N)nc(N)c2n1)c1ccc(C(=O)N[C@@H](CCC(=O)O)C(=O)O)cc1 was tested, and the T/C (dose: 0.19 mg/kg/injection, vehicle: other) was 100, 116, 125, 135 % of control, the T/C (dose: 0.38 mg/kg/injection, vehicle: other) was 125, 133, 150, 180 % of control and the T/C (dose: 0.75 mg/kg/injection, vehicle: other) was 175, 187, 195, 230 % of control. For the same molecule, the T/C (dose: 1.5 mg/kg/injection, vehicle: other) was 212, 250, 285, 300 % of control, the T/C [10] was 229 and 300 % of control and the survivor count [10] was 5 of 6 and 6 of 6.
With Nc1nc2n[nH]nc2c(=O)[nH]1 the T/C [11] was 125 % of control, the survivor count [11] was 6 of 6 and the survivor count (dose: 200.0 mg/kg/injection, vehicle: alkali diluted with saline) was 5 of 6 and 6 of 6.
With OCC1OC(n2cnc3c(Cl)ncnc32)C(O)C1O (stereo not given) the survivor count [8] was 6 of 6.
NC(Cc1c[nH]c2ccc(N(CCCl)CCCl)cc12)C(=O)O (stereo not given) was tested, and the T/C [1] was 136 and 140 % of control and the T/C [2] was 127 % of control.
With O=C(Nc1ccc(NC2=NCCN2)cc1)c1ccc(C(=O)Nc2ccc(NC3=NCCN3)cc2)cc1 the T/C (dose: 2.0 mg/kg/injection, vehicle: saline) was 130 % of control and the T/C [9] was 130 % of control.
For CSCS(=O)C[C@H](CO)NC(=O)/C=C/c1c(C)[nH]c(=O)[nH]c1=O (stereo not given in full), the survivor count (dose: 0.13 mg/kg/injection, vehicle: saline) was 6 of 6, the survivor count [1] was 6 of 6 and the survivor count (dose: 1.0 mg/kg/injection, vehicle: saline) was 6 of 6.
